# In PubChem BioAssay (Tox21):
# Protein sequences, listed by entry. Tags and fused reporters are not part of them. Lines headed by an entry give the natural chain unless they say otherwise; changes in a name come on top.
# UniProt P28223, whole entry, looked up: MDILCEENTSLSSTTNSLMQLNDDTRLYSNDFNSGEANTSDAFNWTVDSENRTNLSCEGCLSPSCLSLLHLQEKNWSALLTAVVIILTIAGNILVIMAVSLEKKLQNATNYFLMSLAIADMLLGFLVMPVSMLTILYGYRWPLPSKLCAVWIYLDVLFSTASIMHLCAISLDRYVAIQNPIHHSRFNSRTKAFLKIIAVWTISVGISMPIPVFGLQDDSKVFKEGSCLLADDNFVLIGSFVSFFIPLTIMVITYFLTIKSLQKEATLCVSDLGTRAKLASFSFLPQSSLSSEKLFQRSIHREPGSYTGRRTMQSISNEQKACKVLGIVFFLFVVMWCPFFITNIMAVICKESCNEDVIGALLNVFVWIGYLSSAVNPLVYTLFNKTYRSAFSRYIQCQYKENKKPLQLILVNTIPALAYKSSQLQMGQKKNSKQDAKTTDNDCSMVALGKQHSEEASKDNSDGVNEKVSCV
# UniProt P14416, whole entry, looked up: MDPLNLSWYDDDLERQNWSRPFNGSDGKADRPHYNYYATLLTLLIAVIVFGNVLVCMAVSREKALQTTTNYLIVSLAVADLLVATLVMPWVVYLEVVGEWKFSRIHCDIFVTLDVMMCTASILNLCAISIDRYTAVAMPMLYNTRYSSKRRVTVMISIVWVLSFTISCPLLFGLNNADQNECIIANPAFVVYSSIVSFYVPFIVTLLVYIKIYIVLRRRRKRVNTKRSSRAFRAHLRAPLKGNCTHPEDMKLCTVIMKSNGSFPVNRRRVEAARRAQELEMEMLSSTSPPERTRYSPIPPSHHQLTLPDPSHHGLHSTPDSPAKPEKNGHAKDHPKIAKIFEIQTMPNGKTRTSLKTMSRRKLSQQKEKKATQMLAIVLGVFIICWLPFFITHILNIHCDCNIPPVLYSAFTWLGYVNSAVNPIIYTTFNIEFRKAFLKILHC
# UniProt P11229: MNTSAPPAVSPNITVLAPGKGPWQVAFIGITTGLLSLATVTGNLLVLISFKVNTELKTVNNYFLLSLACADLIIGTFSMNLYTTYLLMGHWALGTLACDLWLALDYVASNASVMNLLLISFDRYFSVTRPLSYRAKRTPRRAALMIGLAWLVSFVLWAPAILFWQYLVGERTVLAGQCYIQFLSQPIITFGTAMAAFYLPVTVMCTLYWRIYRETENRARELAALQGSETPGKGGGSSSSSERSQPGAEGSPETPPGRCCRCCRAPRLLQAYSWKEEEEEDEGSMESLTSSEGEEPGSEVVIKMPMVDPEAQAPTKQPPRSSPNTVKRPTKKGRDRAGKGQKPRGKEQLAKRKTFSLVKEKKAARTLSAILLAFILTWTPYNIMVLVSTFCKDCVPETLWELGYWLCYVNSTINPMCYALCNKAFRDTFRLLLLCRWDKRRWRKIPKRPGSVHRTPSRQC
# Several values for one entry are separate records, joined by “and”; a condition that tells them apart may be missing. Identical values can stand only once. Inconclusive means that the source gave no clear call. Such entries were picked first, then a sample of the others. For some of these results: Potencies of inconclusive entries are doubtful fits and often do not repeat. More than one record can exist for a structure, and the calls need not agree. Activity calls are given as the source filed them. Unless noted, calls come from the whole dose curve.
# Assays:
# [1] = Nuclear factor erythroid 2-related factor 2/antioxidant responsive element (Nrf2/ARE) small molecule agonists: luciferase reporter gene qHTS assay in human keratinocytes (AID 1919969); conditions: KeratinoSens HaCaT ARE-luciferase, luminescence, 24 h; activity, positive = activation: at 92.4 µM (top of the series); note: nearly all actives have a fitted effect of over 35% in size; note: potency is the fitted concentration of half-maximal effect
# [2] = p53 small molecule agonists, cell-based qHTS assay with rat liver microsomes: qHTS cell viability counter screen (AID 1963580); note: nearly all actives have a fitted effect of over 45% in size; note: potency is the fitted concentration of half-maximal effect
# Method in brief: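 After the beta-lactamase ratio was read, CellTiter-Glo was added to the same wells and luminescence measured at 30 min; cells had been treated 16 h at 37 C with compounds, rat liver microsomes and NADPH (0.5 mg/mL final each).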
# [3] = target: 5-hydroxytryptamine receptor 2A (Homo sapiens) (UniProt P28223); test: 5-hydroxytryptamine receptor 2A (HTR2A) small molecule agonists, cell-based qHTS assay (AID 1963587); note: nearly all actives have a fitted effect of over 30% in size; note: potency is the fitted concentration of half-maximal effect; for activation: % is set by controls: 0 for no effect and ±100 for the full control effect
# Method in brief: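 CHO cells stably expressing human HTR2A, plated 18 h, loaded with calcium dye 1 h at 37 C. Agonist mode: compounds added and intracellular calcium fluorescence recorded kinetically for 2 min at 1 sec intervals.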
# [4] = cAMP Responsive Elements (CRE) small molecule antagonists, cell-based qHTS assay (AID 1963591; active = well fitted inhibition curve with a large enough effect in the signal ratio in the repeat runs, not every such curve was filed as active; inconclusive = weak or mixed curves, or effect the other way; the % refers to the signal ratio; note: potency is the fitted concentration of half-maximal effect; for activity change, negative = inhibition: % is set by controls: 0 for no effect and ±100 for the full control effect); conditions: CRE-bla HEK293T, beta-lactamase FRET ratio; activity change, negative = inhibition: at 92.4 µM (top of the series) unless noted
# Method in brief: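 Cells (CRE-bla HEK 293T, DMEM with 10% dialyzed FBS and 25 mM HEPES) are seeded and incubated 18 h. Compounds are added with NKH477 agonist at 0.25 uM final for 3 h, then FRET substrate for 2 h.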
# [5] = target: Beta-2 adrenergic receptor (Homo sapiens) (UniProt P07550); test: Adrenergic beta2 receptor (ADRB2) small molecule agonists, cell-based qHTS assay (AID 1963593); conditions: CHO-ADRB2 cells, cAMP HTRF, 30 min; note: potency is the fitted concentration of half-maximal effect;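 for activation: CHO cells stably overexpressing human ADRB2; % is set by controls: 0 for no effect and ±100 for the full control effect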
# Method in brief: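 CHO cells stably over-expressing ADRB2 were plated overnight at 37C, then dosed with compounds plus a stimulation mix containing 100uM IBMX and 25uM Ro-20-1724 for 0.5hr at room temperature. cAMP was measured by HTRF competition, 1hr.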
# [6] = p53 small molecule agonists, cell-based qHTS assay (AID 1963582; active = well fitted activation curve with a large enough effect in the signal ratio in the repeat runs, not every such curve was filed as active; inconclusive = weak or mixed curves; the % refers to the signal ratio; note: potency is the fitted concentration of half-maximal effect); conditions: HCT-116 p53RE-bla reporter, beta-lactamase FRET ratio, 16 h; activation: at 66 µM (top of the series) unless noted
# Method in brief: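 Cells carrying a p53-responsive bla reporter are treated with test compounds for 16 h at 37 C; beta-lactamase activity is then detected with LiveBLAzer B/G FRET substrate after 2 h at room temperature.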
# [7] = cAMP Responsive Elements (CRE) small molecule agonists, cell-based qHTS assay (AID 1963590); conditions: CRE-bla HEK293T, beta-lactamase FRET ratio, 3 h; activation: at 92.4 µM (top of the series) unless noted; note: potency is the fitted concentration of half-maximal effect
# Method in brief: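 Cells carrying a CRE-driven beta-lactamase reporter (HEK 293T) are seeded, incubated overnight (18 h), and treated with test compounds for 3 h at 37 C; reporter activity is then detected with a FRET substrate after 2 h at room temperature.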
# [8] = target: Beta-2 adrenergic receptor (Homo sapiens) (UniProt P07550); test: Adrenergic beta2 receptor (ADRB2) small molecule antagonists, cell-based qHTS assay (AID 1963592); conditions: CHO-ADRB2 cells, isoproterenol-stimulated cAMP HTRF ratio, 0.5 h; activity change, negative = inhibition: at 92.4 µM (top of the series) unless noted; note: % is set by controls: 0 for no effect and ±100 for the full control effect; nearly all actives have a fitted effect of over 50% in size
# Method in brief: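 Assay format: CHO-ADRB2 cells, 18-20hr seeding at 37C/5% CO2, then compound plus 1nM isoproterenol agonist mix for 0.5hr RT. Homogeneous time-resolved fluorescence cAMP detection after 1hr, expressed as 665/615 nm ratio.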
# [9] = target: 5-hydroxytryptamine receptor 2A (Homo sapiens) (UniProt P28223); test: 5-hydroxytryptamine receptor 2A (HTR2A) small molecule antagonists, cell-based qHTS assay (AID 1963586); note: nearly all actives have a fitted effect of over 45% in size; note: potency is the fitted concentration of half-maximal effect
# Method in brief: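 CHO cells stably expressing human HTR2A were plated for 18 h at 37 C, then loaded with calcium dye for 1 h. Compounds were preincubated 5 min at room temperature before DOI (4 nM solution) was added. Kinetic fluorescence was read for 3 min.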
# [10] = target: D(2) dopamine receptor (Homo sapiens) (UniProt P14416); test: Dopamine D2 receptor (DRD2) small molecule agonists, cell-based qHTS assay (AID 1963594); conditions: HEK293-DRD2 cAMP HTRF, agonist mode, 30 min; activation: at 92.4 µM (top of the series) unless noted; note: nearly all actives have a fitted effect of over 35% in size; note: potency is the fitted concentration of half-maximal effect
# Method in brief: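 HEK293 cells stably expressing human DRD2, pre-treated with PDE inhibitor Ro20-1724 (0.1 mM final) and compound 10 min at room temperature, then stimulated with NKH477 (200nM […]) for 30 min. cAMP read by HTRF (665/620 nm).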
# [11] = p53 small molecule agonists, cell-based qHTS assay with human liver microsomes: qHTS cell viability counter screen (AID 1963579); note: potency is the fitted concentration of half-maximal effect; nearly all actives have a fitted effect of over 45% in size
# Method in brief: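 Cells carrying the p53 response-element beta-lactamase reporter are treated for 16 h at 37 C with test compounds in the presence of human liver microsomes and NADPH (both 0.5 mg/mL final); ATP-based CellTiter-Glo luminescence then reports viability.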
# [12] = p53 small molecule agonists, cell-based qHTS assay: qHTS cell viability counter screen (AID 1963581); note: nearly all actives have a fitted effect of over 45% in size; note: potency is the fitted concentration of half-maximal effect
# Method in brief: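 Viability was counter-screened in parallel with the p53 agonist reporter by measuring intracellular ATP luminescence in the same HCT-116 p53RE-bla wells after 16 h compound treatment at 37 C.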
# [13] = target: Muscarinic acetylcholine receptor M1 (Homo sapiens) (UniProt P11229); test: Cholinergic receptor muscarinic 1 (CHRM1) small molecule antagonists, cell-based qHTS assay (AID 1963588); note: potency is the fitted concentration of half-maximal effect; nearly all actives have a fitted effect of over 40% in size
# Method in brief: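 Compounds were tested at 15 concentrations in three independent runs. Dye-loaded CHRM1-CHO cells were exposed 5 min at room temperature before stimulation by acetylcholine added at 50nM. Intracellular calcium was read kinetically on FDSS for 3 min.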
# [14] = target: D(2) dopamine receptor (Homo sapiens) (UniProt P14416); test: Dopamine D2 receptor (DRD2) small molecule antagonists, cell-based qHTS assay (AID 1963595; active = well fitted inhibition curve with a large enough effect in the signal ratio in the repeat runs, with a control signal flat; inconclusive = weak or mixed curves, or effect the other way; the % refers to the signal ratio; note: % is set by controls: 0 for no effect and ±100 for the full control effect); conditions: HEK293-DRD2 cAMP HTRF antagonist mode; activity change, negative = inhibition: at 92.4 µM (top of the series) unless noted
# Method in brief: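 HTRF cAMP read-out at 665 and 620 nm emission (340 nm excitation). Antagonist mode: compounds were tested against 12 nM quinpirole in DRD2-HEK293 cells, with 200 nM NKH477 raising cAMP and 0.1 mM Ro20-1724 blocking its breakdown.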
# [15] = activation: at 92.4 µM (top of the series) unless noted
structure (smiles),measurement,setting,value
S=C(NC1CCCCC1)NC1CCCCC1,Potency,[1],inconclusive: 15.4 µM [activator]
same,Potency,[2],"inconclusive: 36.3 µM [cytotoxic, partial curve]"
same,Potency,[3],inactive
same,"activity change, negative = inhibition",[4],inconclusive: -33.5%
same,activation,[5]; [15],inconclusive: 9.55%
same,activation,[5]; at 92.4 µM (top of the series),inactive: 11.7%
O=c1cc(-c2ccccc2)oc2ccc3ccccc3c12,Potency,[1],active: 0.486 µM
same,Potency,[2],"inconclusive: 40.8 µM [cytotoxic, single point]"
same,Potency,[6],inactive
same,Potency,[7],inconclusive: 24.3 µM [fluorescent]
same,Potency,[4],"inconclusive: 24.3 µM [activator, partial curve, poor fit]"
same,"activity change, negative = inhibition",[8],inconclusive: -8.62%
same,activation,[5]; [15],inconclusive: -0.615%
CN(C)c1ccc(C=O)cc1,Potency,[1],"inconclusive: 68.6 µM [activator, single point]"
same,Potency,[2],inactive
same,Potency,[9],"inconclusive: 3.75 µM [inhibitor, full curve, poor fit]"
same,Potency,[5]; [15],inactive
same,Potency,[10],inactive
CCCCCCCCCCCCCCCC(=O)OC[C@H](O)[C@H]1OC(=O)C(O)=C1O,Potency,[1],inactive
same,Potency,[2],"inconclusive: 22.9 µM [rising, partial curve, poor fit]"
same,Potency,[6],"inconclusive: 1.82 µM [rising, full curve, poor fit]"
same,Potency,[4],inactive
same,activation,[5]; [15],inconclusive: -13%
O=C(O)CCCCCCCCCCCBr,Potency,[1],"inconclusive: 43.4 µM [activator, partial curve, poor fit]"
same,Potency,[2],inactive
same,Potency,[6],"inconclusive: 32.5 µM [rising, partial curve, poor fit]"
same,Potency,[7],"inconclusive: 21.7 µM [rising, full curve]"
same,"activity change, negative = inhibition",[4],inconclusive: 0.144%
same,activation,[5]; [15],inconclusive: 23.5%
Cc1ccc([N+](=O)[O-])c(N)c1,Potency,[1],"inconclusive: 66.9 µM [activator, single point]"
same,Potency,[11],"inconclusive: 19.9 µM [cytotoxic, full curve]"
same,Potency,[5]; [15],inactive
CC(C)(C)c1cc(CO)cc(C(C)(C)C)c1O,Potency,[1],"inconclusive: 69.9 µM [activator, single point]"
same,Potency,[2],"inconclusive: 4.66 µM [cytotoxic, single point]"
same,Potency,[12],"inconclusive: 0.466 µM [cytotoxic, single point]"
same,Potency,[13],"inconclusive: 0.382 µM [inhibitor, partial curve, poor fit]"
same,"activity change, negative = inhibition",[4],inconclusive: -34.4%
same,activation,[5]; [15],inconclusive: -3.68%
same,Potency,[10],inactive
same,Potency,[14],inactive
c1ccc2c(c1)ccc1c3ccccc3ccc21,Potency,[1],"inconclusive: 12.4 µM [activator, partial curve]"
same,Potency,[2],"inconclusive: 0.371 µM [cytotoxic, single point]"
same,Potency,[12],inactive
same,Potency,[9],inactive
same,activation,[5]; [15],inconclusive: -6.12% [at 42.5 µM]
CCCCCCCC(=O)OC,Potency,[1],inactive
same,Potency,[2],"inconclusive: 0.16 µM [cytotoxic, single point]"
same,Potency,[3],inactive
same,activation,[5]; [15],inconclusive: 12.2%
same,activation,[5]; at 92.4 µM (top of the series),inactive: 15.2%
same,Potency,[10],active: 61.1 µM
IC(I)I,Potency,[1],"inconclusive: 68.6 µM [activator, single point]"
same,Potency,[2],"inconclusive: 4.57 µM [cytotoxic, single point]"
same,Potency,[3],"inconclusive: 6.16 µM [activator, partial curve] and inactive"
same,Potency,[7],"inconclusive: 68.6 µM [rising, partial curve, poor fit]"
same,Potency,[8],inactive
same,Potency,[5]; [15],"inconclusive: 68.5 µM [inhibitor, single point] and inconclusive: 27.3 µM [activator, single point]"
O=C1c2ccccc2C(=O)c2c(Cl)cccc21,Potency,[1],inconclusive: 36.3 µM [activator]
same,Potency,[2],active: 0.965 µM
same,Potency,[13],"inconclusive: 0.223 µM [inhibitor, single point]"
same,Potency,[7],"inconclusive: 10.2 µM [rising, partial curve, poor fit]"
same,"activity change, negative = inhibition",[4],inconclusive: 3.42% [at 42.4 µM]
same,Potency,[5]; [15],inactive
same,Potency,[10],inactive
O=S(=O)(O)CCS,Potency,[1],"inconclusive: 26.9 µM [activator, single point]"
same,Potency,[2],"inconclusive: 0.0901 µM [rising, full curve]"
same,Potency,[6],inactive
O=c1c(-c2ccc(O)cc2)coc2cc(O)ccc12,Potency,[1],"inconclusive: 7.7 µM [activator, partial curve]"
same,Potency,[2],"active: 10.1 µM and inconclusive: 36.3 µM [cytotoxic, partial curve, poor fit]"
same,Potency,[9],"inconclusive: 33.1 µM [inhibitor, single point] and active: 33.4 µM"
same,Potency,[4],"inconclusive: 45.2 µM [activator, partial curve]"
same,Potency,[5]; [15],"inconclusive: 19.1 µM [inhibitor, single point] and inconclusive: 6.86 µM [inhibitor, partial curve, poor fit]"
same,"activity change, negative = inhibition",[14],inconclusive: 3.23%
